Measured values taken from patent US20210154156A1, “APPLICATION OF COMPOUND IN INHIBITING AB ACCUMULATION AND TREATING ALZHEIMER'S DISEASE” (NORTHEAST NORMAL UNIVERSITY, priority 2018, published 2021).
Structures can show the parent of a compound that is named as a salt.

Test system: APP/PS1 transgenic mice
Assay: Thioflavin S and Congo red staining of brain Aβ plaques in APP/PS1 transgenic mice
Format: in vivo
Details: 10-month-old AD mice after 2 months intragastric administration
From the text: The wild-type (WT) and APP/PS1 double transgenic mice used in the experiment of the present invention were purchased from the Model Animal Research Institute of Nanjing University, and the mouse genes were identified in strict accordance with the PCR method provided.
10-month-old AD mice were anesthetized with 0.4% pentobarbital sodium. Blood was taken by perfusing the atria. 4% paraformaldehyde was perfused for whole body fixation. The brain tissue was taken and weighed. The hemibrains were put into 4% paraformaldehyde solution and used for histopathology. The other half was stored in a cryotube at −80° C. for biochemical analysis. The brain tissues fixed with 4% paraformaldehyde were embedded in wax and sliced. The plaques in the cerebral cortex and hippocampus were stained with Thioflavin S and Congo Red. Pathological images were obtained by digital microscope and fluorescence microscope and quantitatively analyzed.

SMILES: COc1cc2c(cc1OC)C(=O)C(CC1CCN(Cc3ccccc3)CC1)C2 (stereo not shown) [Arishen, donepezil hydrochloride, reference compound]
- Number of stained Aβ deposition plaques in cortex or hippocampus (Thioflavin S, Congo red) vs normal saline AD mice: no significant effect
